Drawing on PMC6288840, this text covers binding for 4 molecules.

Protein sequences, listed by entry. Tags and fused reporters are not part of them.
UniProt P22147: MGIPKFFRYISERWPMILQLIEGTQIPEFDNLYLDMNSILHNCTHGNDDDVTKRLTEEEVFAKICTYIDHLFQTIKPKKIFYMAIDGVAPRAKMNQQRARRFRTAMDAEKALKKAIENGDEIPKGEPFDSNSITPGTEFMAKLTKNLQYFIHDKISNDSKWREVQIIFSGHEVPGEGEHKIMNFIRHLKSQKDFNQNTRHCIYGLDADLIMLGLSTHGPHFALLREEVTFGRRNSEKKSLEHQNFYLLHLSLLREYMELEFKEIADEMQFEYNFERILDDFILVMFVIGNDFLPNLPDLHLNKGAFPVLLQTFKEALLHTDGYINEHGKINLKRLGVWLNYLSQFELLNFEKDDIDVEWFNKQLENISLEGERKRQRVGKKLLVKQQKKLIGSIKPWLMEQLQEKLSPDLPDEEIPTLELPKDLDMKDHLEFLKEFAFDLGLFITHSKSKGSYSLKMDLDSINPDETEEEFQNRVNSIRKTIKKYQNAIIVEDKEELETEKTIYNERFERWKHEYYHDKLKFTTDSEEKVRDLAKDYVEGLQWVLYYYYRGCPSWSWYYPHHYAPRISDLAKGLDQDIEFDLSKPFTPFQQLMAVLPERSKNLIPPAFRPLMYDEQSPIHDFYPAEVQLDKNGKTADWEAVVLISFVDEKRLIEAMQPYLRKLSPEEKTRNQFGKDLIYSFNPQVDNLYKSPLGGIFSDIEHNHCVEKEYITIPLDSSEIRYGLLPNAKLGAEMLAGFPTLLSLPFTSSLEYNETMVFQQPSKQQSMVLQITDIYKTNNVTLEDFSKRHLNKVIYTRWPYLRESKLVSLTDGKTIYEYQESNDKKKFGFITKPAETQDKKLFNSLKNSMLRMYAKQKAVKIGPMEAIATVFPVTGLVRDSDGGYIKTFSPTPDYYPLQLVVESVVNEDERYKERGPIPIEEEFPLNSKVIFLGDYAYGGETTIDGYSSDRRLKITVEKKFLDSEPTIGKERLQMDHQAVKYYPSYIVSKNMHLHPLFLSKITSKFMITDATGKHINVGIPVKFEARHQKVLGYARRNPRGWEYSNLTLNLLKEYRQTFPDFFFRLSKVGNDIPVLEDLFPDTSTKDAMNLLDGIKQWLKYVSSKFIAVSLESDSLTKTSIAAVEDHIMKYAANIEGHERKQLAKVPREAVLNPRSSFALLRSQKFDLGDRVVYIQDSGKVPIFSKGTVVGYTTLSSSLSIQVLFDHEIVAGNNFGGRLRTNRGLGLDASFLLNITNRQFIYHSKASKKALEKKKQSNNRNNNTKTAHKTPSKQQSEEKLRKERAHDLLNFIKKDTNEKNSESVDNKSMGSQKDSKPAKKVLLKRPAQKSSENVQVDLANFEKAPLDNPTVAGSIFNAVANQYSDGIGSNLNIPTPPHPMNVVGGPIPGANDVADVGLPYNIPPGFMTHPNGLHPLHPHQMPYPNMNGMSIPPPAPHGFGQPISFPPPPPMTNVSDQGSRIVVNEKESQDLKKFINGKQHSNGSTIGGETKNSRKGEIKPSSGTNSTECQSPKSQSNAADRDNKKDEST

First the molecules themselves.
B1: YMR196W (endogenous) (protein, UniProt Q04336 1-1088)
chain: MNKLRDKFVDSTVEEERLRENRNHEKYWYRWGPYLSERSWATVREDYSLNGDAWSNFPFEHANARVFRWGEDGLFGVSDNKQLVCMNVALWNGKDERLKERLFGLTGPQGNHGEDVKELYFYLDNTPTHSYMKALYKYPFKKAFPYKELVQKNGERGYEDKEFEVYDIDGLYRDSETGDNPYFDVFFEMAKDDENPSELNFRLTIHNRSKIDSGELYIAPQLFFRNTWAFDGTRTKDKPLLERDAEAANLINMTHKKYGNCQMVFQPSPGGFSSGTNEEEEDKEVEDIDPLLLFTDNESNLVKLFNEEKNPSEYTKDAFEEYLVQGKTDAVNPENKGTKACAVYHFKNIPPGEYVTVRYKFTNDPKNSIFKAQNLAVVDEDEFDLIFDNREEEADNFYWRITPLPISDELRNLQRQAFSGLLWTKQFYNFTYDAWYNGDANVKPRPPPNRANGRNKNWKHLYIEDILSMPDKWEYPFFASWDTAFHCIPLAMIDPEFAKRQLDLLTREWYMHPNGQIPAYEWNFNDVNPPVHAWAVYRVFKIERNMYNREDRTFLERVFQKLLLNFTWWVNRKDTEGKNVFEGGFLGLDNIGVFNRSEPLPTGGTLEQADSTGWMAFFSLQMLNIALELAKENPVYEDIASKFFEHFILISDSMSFEYATDITGEKCKEVIKQNLWNEADKFYYDAISWGDHKVQLPIRSLVGLIPLYASMTLEPSIIKQFRGFKKRVDWFVNNRPEIFDRNIASMSKKGVGERLLLSLVTKERLTAILSRLLDETEFLSPYGIRSLSKYHEKHPFEMNVNGVEYMVKYLPGESDSGMFGGNSNWRGPIWFPTSFLIMEALQRFYLYYGSDFKVECPVGSGDYLNLAEVAEELGYRMIHLFVPDENGERAIHYGDHSKFLSSDPYFRDYVPFFEYFDGDTGRGLGASHQCGWTALVAKWISDVGISCVRLPRTPRSSVATTASTESSEQGPKMKRMARRKSAKSLVNYTATILDLTEEEKRHHRIGGTHSGLTPQSSISSDKARHLMEEMNEEEGIHETVVPEDRHNFETKLIGKLKDKVKNMKVTDKAKDEDIDPMDPMSPLNKDVS
B2: Hsp26 (endogenous) (protein, UniProt P15992 1-214)
chain: MSFNSPFFDFFDNINNEVDAFNRLLGEGGLRGYAPRRQLANTPAKDSTGKEVARPNNYAGALYDPRDETLDDWFDNDLSLFPSGFGFPRSVAVPVDILDHDNNYELKVVVPGVKSKKDIDIEYHQNKNQILVSGEIPSTLNEESKDKVKVKESSSGKFKRVITLPDYPGVDADNIKADYANGVLTLTVPKLKPQKDGKNHVKKIEVSSQESWGN
B3: Mss116 (endogenous) (protein, UniProt P15424 27-664)
chain: NHITWAVSRRLYNDGNRDQRNFGRNQRNNNSNRYRNSRFNSRPRTRSREDDDEVHFDKTTFSKLIHVPKEDNSKEVTLDSLLEEGVLDKEIHKAITRMEFPGLTPVQQKTIKPILSSEDHDVIARAKTGTGKTFAFLIPIFQHLINTKFDSQYMVKAVIVAPTRDLALQIEAEVKKIHDMNYGLKKYACVSLVGGTDFRAAMNKMNKLRPNIVIATPGRLIDVLEKYSNKFFRFVDYKVLDEADRLLEIGFRDDLETISGILNEKNSKSADNIKTLLFSATLDDKVQKLANNIMNKKECLFLDTVDKNEPEAHERIDQSVVISEKFANSIFAAVEHIKKQIKERDSNYKAIIFAPTVKFTSFLCSILKNEFKKDLPILEFHGKITQNKRTSLVKRFKKDESGILVCTDVGARGMDFPNVHEVLQIGVPSELANYIHRIGRTARSGKEGSSVLFICKDELPFVRELEDAKNIVIAKQEKYEPSEEIKSEVLEAVTEEPEDISDIVISLISSYRSCIKEYRFSERRILPEIASTYGVLLNDPQLKIPVSRRFLDKLGLSRSPIGKAMFEIRDYSSRDGNNKSYDYDDDSEISFRGNKNYNNRSQNRDYDDEPFRRSNNNRRSFSRSNDKNNYSSRNSNIY
B4: Arx1 (endogenous) (protein, UniProt Q03862 1-593)
chain: MALAISHEDTQILLKDKNILQESVLNKYRTAGQIAQTALKYVTSLINDSYHSKTTQRQLTVPELCLLTDSFILTRLEQYYKNKVNERGIAIPTTIDIDQISGGWCPEIDDTQNLLNWNKGKDSTFASSVTGTLRPGDLVKITLGVHIDGYTSEVSHTMVIYPVDETKPILQPTGPLLGGKADAVAAAHIAMETVVALLACALTPEKLPASLGGTSSGITGQLIRTIVDTIARSYNCGVVPGSRVRRIRRFLAGQNEGIVAEREYKGVVWTESHQEADLLSNTDAKDLTVVDRGQSTPFTNVSAIPSDDFVVQSGEVYLIDLKMASLEHCTKKGLVTLETVDSYTGKSHKAGELIARPGAYVRDFAQTHILKLKTSRQLLTKIDKQGVYPFKLSHLSSNFPFVHENEEELQSLKKDLKSFRLGMSEISNNYLCVESPIQIARWVPWDHILKATNPNGNLSYDATSTLTLPGHELPLPKLGVSAIKLKSLMNSTKESISLPVARECNTIVLCDSSVSTTDRPELLRLTGGSKTCQPSWIHSQHELNPQDSIVQGIFQLATLAKDKRFGLLLKETQPMKQKSVETSNGGVEETMKM

Results are given in words; binding and its absence hold for the method and conditions named. Binding seen in cells or lysates may run through a third protein. A yes stands for co-enrichment or nearness to the bait. Other partners may have been found.

This experiment addresses Xrn1-Flag (S. cerevisiae) (UniProt P22147). Description: affinity purification with mass spectrometry; reciprocal SILAC; Xrn1-Flag IP from wild type and rad53 deletion cells treated with 2 ug/mL 4-NQO for 60 min.
As for B1, the binding result is on record as “binds”.
The value for B2 was “binds”; that for B3 was “binds”; that for B4 was “binds”.
